Source: PubChem BioAssay AID1347076 (National Center for Advancing Translational Sciences (NCATS), 2019)
Screen size: about 400,000 compounds; about 13,000 (3.2%) were called active. Inconclusive means that the source gave no clear call. Such entries were picked first, then a sample of the others. The call rests on the fitted dose curve; in most records, active means well fitted cell-killing curve with a large enough effect; inconclusive means small, poorly fitted or top-dose-only effect, or effect the other way; inactive means flat fitted curve, though single readings scatter. Potencies of inconclusive entries are doubtful fits and often do not repeat.

Assay: qHTS assay for MDR1-selective chemotherapeutics: Primary screen using the drug-selected MDR subline cells KB-V1; further: nearly all actives have a fitted effect of over 60% in size
Conditions: KB-V1 MDR cells viability, CellTiter-Glo, 72 h; activity change, negative = cytotoxicity: at 46.1 µM (top of the series)
Summary of the method: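 Cells of the MDR subline KB-V1 are plated, dosed with compound at multiple concentrations, and incubated 72 h at 37 degrees C; CellTiter-Glo is then added and luminescence read after 10 min.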
On the % scale 0 is the no-effect control and ±100 the full control effect; potency means the concentration at half of the fitted maximal effect.

| Compound | activity change, negative = cytotoxicity | Potency |
| --- | --- | --- |
| CCCOc1ccc(CCC(=O)N/N=C/c2ccco2)cc1 | inactive: -24% |  |
| Cn1ncc([N+](=O)[O-])c1C(=O)N/N=C/c1cccc([N+](=O)[O-])c1 | inactive: -0.55% |  |
| O=c1[nH]cnc2c1nnn2Cc1ccccc1 |  | inconclusive: 14.6 µM [rising, single point] |
| Cc1cc(OCC(=O)N2CCCCCC2)ccc1[N+](=O)[O-] |  | inconclusive: 14.6 µM [cytotoxic, partial curve] |
| COc1ccc(Br)cc1/C=N/Nc1ccc(Cl)c(C(=O)O)c1 |  | inconclusive: 29.1 µM [rising, single point] |
| Cc1cc(C(=O)CSc2nncs2)c(C)n1Cc1ccco1 |  | inconclusive: 16.4 µM [cytotoxic, partial curve] |
| Cc1nc2c(-c3ccc(F)cc3)cnn2c(N)c1-c1ccc(F)cc1 |  | inconclusive: 16.4 µM [cytotoxic, single point] |
| CC(C)c1ccc(CN(C(=O)c2ccco2)C2CCS(=O)(=O)C2)cc1 (configuration not stated) |  | inconclusive: 11.6 µM [cytotoxic, partial curve] |
| CC1CCN(C(=O)Cn2ncc3c([nH]c4ccccc43)c2=O)CC1 |  | inconclusive: 0.92 µM [rising, full curve] |
| CC(C)C(c1nnnn1Cc1cccs1)N1CCN(c2ccccc2)CC1 (configuration not stated) |  | inconclusive: 32.6 µM [cytotoxic, single point] |
| CCCOc1ccc(-c2nc(C#N)c(N3CCN(CC)CC3)o2)cc1 | inactive: 5.13% |  |
| COc1ccc(NC(=O)Cc2ccsc2)cc1S(=O)(=O)N1CCOCC1 | inactive: -4.62% |  |
| CCOc1ccccc1C(=O)Nc1ccc(NC(=O)c2ccccc2)cc1 | inactive: -6.17% |  |
| Cc1ccc(NC(=O)c2noc3c2CCCCC3)cc1C |  | inconclusive: 4.11 µM [cytotoxic, full curve, poor fit] |
| O=C(COC(=O)Cc1ccc(Cl)cc1Cl)NCc1ccco1 | inactive: 12.7% |  |
| Cc1ccc(C(C(=O)NC2CCCC2)N(Cc2ccc3c(c2)OCO3)C(=O)Cc2cccs2)cc1 (configuration not stated) |  | inconclusive: 0.461 µM [cytotoxic, full curve, poor fit] |
| Cn1c(Cl)c(/C=N/OC(=O)C(C)(C)C)c2ccccc21 |  | inconclusive: 8.2 µM [rising, partial curve, poor fit] |
| O=C(CSc1nc(-c2ccc(F)cc2)cs1)N1CCOCC1 |  | inconclusive: 23.1 µM [cytotoxic, partial curve, poor fit] |
| CCCCCCN1CCN(C2CN(Cc3cn(Cc4ccc(C)cc4)nn3)S(=O)(=O)C2)CC1 (configuration not stated) |  | inconclusive: 3.26 µM [cytotoxic, full curve, poor fit] |
| CCCSc1nsc(NC(=O)C(c2ccccc2)c2ccccc2)n1 |  | inconclusive: 32.6 µM [cytotoxic, single point] |
| COc1ccc(-c2c3c(cc(C)[n+]2[O-])oc2ccc(OC)cc23)cc1 |  | active: 10.3 µM |
| COc1cc(NC(=O)c2ccccn2)cc(OC)c1OC | inactive: -8.91% |  |
| CC(=O)c1cccc(NC(=O)/C(=C\c2ccco2)NC(=O)c2ccco2)c1 |  | inconclusive: 5.17 µM [rising, full curve, poor fit] |
| CN(C)c1ccc(/C=C/c2noc(-c3ccccc3O)n2)cc1 | inactive: 6.66% |  |

| Compound | activity change, negative = cytotoxicity | Potency |
| --- | --- | --- |
| COC(=O)c1c(-c2ccccc2)csc1N1C(=O)Nc2ccccc2N1O |  | inconclusive: 0.517 µM [rising, full curve] |
| COc1cc(OC)c(N(C)S(=O)(=O)c2cccc(C(=O)OCC(=O)N(C)Cc3ccccc3)c2)cc1Cl | inactive: -0.38% |  |
| Cc1cc(/C=N/NC(=O)c2cccc(F)c2)c(C)n1-c1ccccc1 | inactive: -10.7% |  |
| CN(Cc1cn(Cc2ccc(C(F)(F)F)cc2)nn1)C1CN(Cc2cn(Cc3ccc(C(F)(F)F)cc3)nn2)S(=O)(=O)C1 (configuration not stated) |  | inconclusive: 20.6 µM [cytotoxic, single point] |
| CC(C)c1ccc(NC(=O)C(C)N(c2ccccc2)S(C)(=O)=O)cc1 (configuration not stated) | inactive: 9.23% |  |
| Cc1ccc(C(c2cccc(Br)c2)c2c(C)[nH]c3ccccc23)s1 (configuration not stated) | inactive: 4.38% |  |
| O=C(CSc1nc2nc(-c3cccs3)cc(C(F)(F)F)c2c(=O)[nH]1)C(F)(F)F |  | inconclusive: 20.6 µM [cytotoxic, single point] |
| Cc1ccccc1CSc1nnc(-c2ccncc2)n1C | inactive: 17.8% |  |
| CCN(c1ccccc1)S(=O)(=O)c1ccc(NC(=O)C(C)(C)C)cc1 |  | active: 11.6 µM |
| C=CCn1c(SCCN2C(=O)c3ccccc3C2=O)nc2scc(-c3ccc(F)cc3)c2c1=O |  | inconclusive: 9.2 µM [rising, single point] |
| COC(=O)[C@@]1(Cc2ccc(F)cc2)[C@H]2c3cc(C(=O)N4CCCC4)n(Cc4ccc(C(F)(F)F)nc4)c3C[C@H]2CN1C(=O)c1ccccc1 | inactive: -10.1% |  |
| CC(C)C(NS(=O)(=O)c1ccc2c(c1)oc(=O)n2C)C(=O)NCCc1ccccc1 (configuration not stated) | inactive: -4.05% |  |
| COc1cccc(-c2nc(N3CCC(C)CC3)c3ccccc3n2)c1O |  | active: 16.4 µM |
| COCCCNc1nc(NCc2cccc(Cl)c2)c2cnn(C)c2n1 |  | inconclusive: 20.6 µM [cytotoxic, partial curve] |
| COc1cc(OC)c(NC(=O)N2CC3CCCN3c3ccccc32)cc1Cl (configuration not stated) | inactive: -18% |  |
| c1ccc(Nc2nc3ccccc3o2)cc1 |  | inconclusive: 29.1 µM [cytotoxic, single point] |
| O=C1c2ccccc2NC(c2ccc(Br)s2)N1O (configuration not stated) |  | inconclusive: 3.26 µM [cytotoxic, partial curve, poor fit] |
| Cc1ccc(Cc2cnc(NC(=O)c3cccs3)s2)cc1 |  | inconclusive: 29.1 µM [cytotoxic, single point] |
| O=c1[nH]c(SCc2ccccc2Cl)nc2c1CCCC2 |  | inconclusive: 20.6 µM [cytotoxic, single point] |
| Cc1cc(C)nc(SCC(=O)Nc2cccc(S(=O)(=O)N(C)C)c2)n1 |  | inconclusive: 18.4 µM [cytotoxic, single point] |
| O=c1ccc2c([nH]1)CCCCCCCCCC2 |  | active: 7.31 µM |
| COC(=O)N/N=C/c1ccc([N+](=O)[O-])s1 |  | inconclusive: 20.6 µM [cytotoxic, single point] |
| CCn1c(NC(=O)/C=C/c2ccc(F)cc2)nc2ccccc21 |  | inconclusive: 14.6 µM [cytotoxic, partial curve, poor fit] |

A second format for part of the listing above:
Compound | activity change, negative = cytotoxicity | Potency
COC(=O)[C@@]1(Cc2ccc(F)cc2)[C@H]2c3cc(C(=O)N4CCCC4)n(Cc4ccc(C(F)(F)F)nc4)c3C[C@H]2CN1C(=O)c1ccccc1 | inactive: -10.1% | 
CC(C)C(NS(=O)(=O)c1ccc2c(c1)oc(=O)n2C)C(=O)NCCc1ccccc1 (configuration not stated) | inactive: -4.05% | 
COc1cccc(-c2nc(N3CCC(C)CC3)c3ccccc3n2)c1O |  | active: 16.4 µM
COCCCNc1nc(NCc2cccc(Cl)c2)c2cnn(C)c2n1 |  | inconclusive: 20.6 µM [cytotoxic, partial curve]
